Measurements reported in ChEMBL document CHEMBL4303122, “Identification of potential treatments for COVID-19 through artificial intelligence-enabled phenomic analysis of human cells infected with SARS-CoV-2” (2020).
Where a name gives a salt, the structure may show the parent alone. The full ranking holds about 1,600 compounds; the median of “Hit score” is about 0.13, and the highest 2% start at about 0.46. Some of the results follow.

test system: SARS-CoV-2; experiment: Antiviral activity against SARS-CoV-2 (USA-WA1/2020 strain) measured by imaging in HRCE cells at MOI 0.4 after 96 hrs (reported as hit score from 0-1 for on-disease vs off-disease activity: scores >0.6 considered hits); assay type: functional, Homo sapiens

Row | Structure (SMILES) | Hit score
1 | CC(C)(S)C(=O)N[C@@H](CS)C(=O)O [BUCILLAMINE] | 0.1477
2 | OC[C@@H](O)C(O)[C@@H](O)CO (stereo not given in full) | 0.1332
3 | Cc1cnc(Nc2ccc(OCCN3CCCC3)cc2)nc1Nc1cccc(S(=O)(=O)NC(C)(C)C)c1 [FEDRATINIB] | -0.003207
4 | Cn1ncnc1[C@H]1c2n[nH]c(=O)c3cc(F)cc(c23)N[C@@H]1c1ccc(F)cc1 [TALAZOPARIB] | 0.1593
5 | CNCCc1ccccn1 [BETAHISTINE] | 0.1802
6 | Cc1nc2c([nH]1)-c1ccccc1N(C(=O)c1ccc(NC(=O)c3ccccc3-c3ccccc3)cc1)CC2 [CONIVAPTAN] | 0.2311
7 | CC=CC(=O)N(CC)c1ccccc1C | 0.08702
8 | CN(C)C(=N)NC(=N)N [METFORMIN] | -0.02581
9 | C=C1/C(=C\C=C2/CCC[C@]3(C)[C@@H]([C@H](C)/C=C/[C@H](C)C(C)C)CC[C@@H]23)C[C@@H](O)C[C@@H]1O [DOXERCALCIFEROL] | 0.4621
10 | Nc1nc2c(ncn2COC(CO)CO)c(=O)[nH]1 [GANCICLOVIR] | 0.1061
11 | CC(NC(C)(C)C)C(=O)c1cccc(Cl)c1 (stereo not given) [BUPROPION] | 0.1506
12 | Cc1cccc(C)c1OCC(=O)N[C@@H](Cc1ccccc1)[C@@H](O)C[C@H](Cc1ccccc1)NC(=O)[C@H](C(C)C)N1CCCNC1=O [LOPINAVIR] | 0.05208
13 | O=C1Nc2ccc(Cl)cc2[C@@](C#CC2CC2)(C(F)(F)F)O1 [EFAVIRENZ] | 0.3102
14 | COc1cccc(OC)c1C(=O)N[C@@H]1C(=O)N2[C@@H]1SC(C)(C)[C@@H]2C(=O)O [METHICILLIN] | 0.05096
15 | Nc1ccc(C(=O)O)c(O)c1 [AMINOSALICYLIC ACID] | 0.1701
16 | OCCN1CCN(CC/C=C2/c3ccccc3Sc3ccc(Cl)cc32)CC1 [ZUCLOPENTHIXOL] | 0.1545
17 | CN1CCC(=C2c3ccccc3CCn3c(C=O)cnc32)CC1 [ALCAFTADINE] | 0.08654
18 | C[N+]1(CC2CC2)CC[C@]23c4c5ccc(O)c4O[C@H]2C(=O)CC[C@@]3(O)[C@H]1C5 (stereo not given in full) [METHYLNALTREXONE] | 0.1187
19 | Nc1ccn(C[C@@H](CO)OCP(=O)(O)O)c(=O)n1.O.O [CIDOFOVIR] | 0.01896
20 | Nc1ccc(/N=N/c2ccccc2)c(N)n1 [PHENAZOPYRIDINE] | 0.2186
21 | CCC1(C)CC(=O)NC1=O (stereo not given) [ETHOSUXIMIDE] | 0.1367
22 | C[C@H](Nc1ncnc2nc[nH]c12)c1cc2cccc(Cl)c2c(=O)n1-c1ccccc1 [DUVELISIB] | 0.6035
23 | CC(NCCc1ccc(O)cc1)C(O)c1ccc(O)cc1 (stereo not given) [RITODRINE] | -0.06425

Quoted at random: 4 entries already listed, in no set order.
Row | Structure (SMILES) | Hit score
5 | CNCCc1ccccn1 [BETAHISTINE] | 0.1802
3 | Cc1cnc(Nc2ccc(OCCN3CCCC3)cc2)nc1Nc1cccc(S(=O)(=O)NC(C)(C)C)c1 [FEDRATINIB] | -0.003207
8 | CN(C)C(=N)NC(=N)N [METFORMIN] | -0.02581
17 | CN1CCC(=C2c3ccccc3CCn3c(C=O)cnc32)CC1 [ALCAFTADINE] | 0.08654

Remaining list, next part.

Row | Structure (SMILES) | Hit score
24 | C[N+](C)(CCOc1ccccc1)Cc1ccccc1.O=C([O-])c1cc2ccccc2cc1O [BEPHENIUM HYDROXYNAPHTHOATE] | 0.2695
25 | C=C[C@H]1CN2CC[C@H]1C[C@@H]2[C@@H](O)c1ccnc2ccc(OC)cc12 [QUINIDINE] | 0.3909
26 | O=c1c2ccccc2[se]n1-c1ccccc1 [EBSELEN] | 0.2275
27 | O=S(=O)(c1cccc2cnccc12)N1CCCNCC1 [FASUDIL] | 0.1213
28 | O=C(c1ccc(F)c(F)c1Nc1ccc(I)cc1F)N1CC(O)([C@@H]2CCCCN2)C1 [COBIMETINIB] | -0.006789
29 | CO[C@H]1C[C@@H]2CC[C@@H](C)[C@@](O)(O2)C(=O)C(=O)N2CCCC[C@H]2C(=O)O[C@H]([C@H](C)C[C@@H]2CC[C@@H](OCCO)[C@H](OC)C2)CC(=O)[C@H](C)/C=C(\C)[C@@H](O)[C@@H](OC)C(=O)[C@H](C)C[C@H](C)/C=C/C=C/C=C/1C [EVEROLIMUS] | 0.4984
30 | CN[C@@H](C)[C@H](O)c1ccccc1.Cl [EPHEDRINE HYDROCHLORIDE] | 0.3718
31 | CCCc1nn(C)c2c(=O)[nH]c(-c3cc(S(=O)(=O)N4CCN(C)CC4)ccc3OCC)nc12 | 0.1151
32 | CCCCOC(=O)c1cc2c(cn1)[nH]c1ccccc12 | 0.2723
33 | COC(=O)C[C@](O)(CCCC(C)(C)O)C(=O)O[C@@H]1C(OC)=C[C@]23CCCN2CCc2cc4c(cc2[C@H]13)OCO4 [OMACETAXINE MEPESUCCINATE] | 0.04224
34 | CC(C)OC(=O)[C@H](C)N[P@@](=O)(OC[C@H]1O[C@@H](n2ccc(=O)[nH]c2=O)[C@](C)(F)[C@@H]1O)Oc1ccccc1 | 0.2594
35 | CN(C)CCc1c[nH]c2ccc(CS(=O)(=O)N3CCCC3)cc12 [ALMOTRIPTAN] | 0.03586
36 | CCCCc1ncc(/C=C(\Cc2cccs2)C(=O)O)n1Cc1ccc(C(=O)O)cc1 [EPROSARTAN] | 0.09355
37 | N[C@@H](Cc1ccc(O)c(O)c1)C(=O)O [LEVODOPA] | 0.1611
38 | CN1CCN2c3ccccc3Cc3ccccc3C2C1 (stereo not given) [MIANSERIN] | 0.2217
39 | CCCCCCCCOc1ccccc1C(=O)Nc1ccc(C(=O)OCC[N+](C)(CC)CC)cc1 [OTILONIUM] | 0.1331
40 | O=C(O)CCC(=O)c1ccc(-c2ccccc2)cc1 [FENBUFEN] | 0.3282
41 | CC(OC(=O)NCC1(CC(=O)O)CCCCC1)OC(=O)C(C)C (stereo not given) [GABAPENTIN ENACARBIL] | 0.2724
42 | O=C1c2c(O)ccc(O)c2C(=O)c2c(NCCNCCO)ccc(NCCNCCO)c21 [MITOXANTRONE] | 0.05299
43 | CCOC(=O)C1=C(C)NC(C)=C(C(=O)OC)C1c1cccc(Cl)c1Cl (stereo not given) [FELODIPINE] | 0.04552
44 | CC(=O)O[C@H]1C[C@@H]2CC[C@@H]3[C@H](CC[C@@]4(C)[C@H]3C[C@H]([N+]3(C)CCCCC3)[C@@H]4OC(C)=O)[C@@]2(C)C[C@@H]1[N+]1(C)CCCCC1 [PANCURONIUM] | 0.09762
45 | COC(=O)/C=C/C(=O)OC [DIMETHYL FUMARATE] | 0.2569
